Literature values as cited in US10201585B2, “Methods for treatment of atherosclerosis” (Stealth Peptides International, Inc., priority 2012, dated 2019).
For at least one compound, name, drawing or mass did not settle the structure.

System: hepatitis C virus (HCV)
Settings: alone and with interferon; cited from earlier work

| Structure (SMILES) | Effect on HCV in an in vitro model of HCV infection |
| --- | --- |
| CC(C)n1c(/C=C/C(O)CC(O)CC(=O)O)c(-c2ccc(F)cc2)c2ccccc21 (centres unmarked) [fluvastatin] | anti-HCV effect |
| CCC(C)(C)C(=O)O[C@H]1C[C@@H](C)C=C2C=C[C@H](C)[C@H](CC[C@@H]3C[C@@H](O)CC(=O)O3)[C@H]21 [simvastatin] | anti-HCV effect |
